The values below come from paper PMC12040169 (PLOS Biology, 2025).

Some of the results follow.

The subject of the experiment is T1, CTL2-GFP (C. trachomatis L2/434/Bu, GFP-expressing).
T1 construct: L2/434/Bu, GFP-expressing
More on the design: species or system HeLa; Intracellular C. trachomatis growth in HeLa cells, bulk GFP fluorescence relative to DMSO. Conditions: bulk GFP, single well; 28.5 h, 10 µM; inhibitor.
Consider `Cc1ccc(S(=O)(=O)Nc2nccnc2-c2ccc(Cc3nnn[nH]3)cc2)cc1` [CBK073841], for which the “% of control remaining” value came out at 114.813%.

As for `Cc1nc(C2(O)CCCN(C3CCCCC3)CC2)sc1COc1ccc(F)c(F)c1` (stereo not shown) [CBK286499], the “% of control remaining” value is 97.3436%.

As for `CC(C)c1nccn1CC(=O)NCCOc1ccc(F)cc1` [CBK281597], the “% of control remaining” value is 136.326%.

As for `Cc1oc(-c2ccccc2)nc1C(=O)O` [CBK047490], the “% of control remaining” value is on record as 149.519%.

Regarding `CCC(CO)Nc1cncc(-c2cc(OC)c(OC)c(OC)c2)n1` (stereo not shown) [CBK037882], the “% of control remaining” value was 132.694%.

As to `Cc1nn(C)c(Cl)c1S(=O)(=O)Nc1cc(NC2CCNC2)c2occc2c1` (stereo not shown) [CBK067807C], the “% of control remaining” value is reported as 92.2309%.

In the case of `COc1cncc(-c2cc(N3CCC(N4CCCCC4)CC3)ncn2)c1` [CBK090964], the “% of control remaining” value worked out at 195.879%.

Take `O=C(Nc1ccc2ncccc2c1)c1ccc(Cl)cc1Cl` [CBK159793]: the “% of control remaining” value was 115.166%.

Turning to `CC(=O)CSc1nnc(COc2ccc(C3CCCCC3)cc2)n1-c1ccccc1` [CBK265026], the “% of control remaining” value is recorded as 84.6072%.

On to `O=C(O)C1CCC(N2C(=O)C3C4CCC(C4)C3C2=O)CC1` (stereo not shown) [CBK287183], for which the “% of control remaining” value was found to be 98.8816%.

`O=c1[nH]c2ccccc2n1C1CCN(S(=O)(=O)c2ccc(OC(F)(F)F)cc2)CC1` [CBK149690]: the “% of control remaining” value was found to be 115.889%.

In the case of `CCNc1nnc(SCCC(=O)N2CCN(c3ccc(F)cc3)CC2)s1` [CBK305058], the “% of control remaining” value is on record as 94.9943%.

Take `CCN(C(=O)c1cnc2scc(C)n2c1=O)c1ccccc1` [CBK287452]: the “% of control remaining” value was determined as 107.533%.

In the case of `O=C(NCCCN1CCOCC1)c1nn2c(C(F)(F)F)cc(-c3cccs3)nc2c1Cl` [CBK262553], the “% of control remaining” value turned out to be 122.114%.

On to `Cc1ccc(S(=O)(=O)NCC(C)O)cc1-c1nnc2c3ccccc3c(C)nn12` (stereo not shown) [CBK266614], for which the “% of control remaining” value is recorded as 180.391%.

On to `COc1ccc2[nH]c(SCC(=O)O)nc2c1` [CBK091620], for which the “% of control remaining” value came out at 121.669%.

As to `CC(C)CC(C(=O)Nc1nnc(C(C)C)s1)N1C(=O)c2ccccc2C1=O` (stereo not shown) [CBK091610], the “% of control remaining” value is 100%.

As to `CC(=O)Nc1ccc(-c2cccc(COC3CCN(C(=O)c4ccc(OC(C)C)cc4)CC3)c2)cc1` [CBK149485], the “% of control remaining” value came to 10.9178%.

For `Cc1ccc2oc(-c3cc(NC(=O)c4nc[nH]n4)ccc3O)nc2c1` [CBK266900], the “% of control remaining” value is listed as 108.472%.

As to `Cn1c(Cc2csc(NC(=O)CNC(=O)Cc3ccccc3)n2)n[nH]c1=S` [CBK296765], the “% of control remaining” value was 188.384%.

Take `Cn1cc(-c2nccnc2OCCc2cccs2)cn1` [CBK107066]: the “% of control remaining” value is given as 122.024%.

Take `CC(C)(CC(=O)O)CC(=O)Nc1ccc(Cl)c(Cl)c1` [CBK086500]: the “% of control remaining” value came to 141.596%.

Consider `CC(=O)NC1CCN(CC2(c3ccc(F)cc3)CCCC2)CC1` [CBK283327], for which the “% of control remaining” value came to 123.496%.

Take `O=c1oc2c(CN3CCN(CCO)CC3)c(O)ccc2cc1-c1nc(-c2ccc(Br)cc2)cs1` [CBK264949]: the “% of control remaining” value came out at 100%.

Take `Cc1ccc(S(=O)(=O)n2c(SCc3ccccc3)nc3ccccc32)cc1` [CBK293933]: the “% of control remaining” value is given as 90.6369%.

With `OCc1cc(N2CCOC3(CCCOC3)C2)ncc1F` (stereo not shown) [CBK304774], the “% of control remaining” value is 137.056%.

As to `CCCn1ccnc1SCC(=O)Nc1ccc(CN2CCOCC2)cc1` [CBK306068], the “% of control remaining” value amounted to 112.001%.

For the molecule `FC(F)c1cc(-c2ccccc2)n2ncnc2n1` [CBK025714], the “% of control remaining” value came to 100%.

`COc1ccc(S(=O)(=O)N(C)CC(=O)Nc2ccc(C(N)=O)cc2)cc1Cl` [CBK267891]: the “% of control remaining” value is given as 113.705%.

As to `CCN(CC)CCNC(=O)c1c(O)c2ccccc2n(Cc2ccccc2)c1=O` [CBK291199], the “% of control remaining” value was determined as 76.4912%.

As for `O=C(CN1C(=O)c2ccccc2C1=O)OCC(=O)N1c2ccccc2Sc2ccccc21` [CBK264701], the “% of control remaining” value was 117.379%.

For `COC(=O)c1ccccc1NC(=O)COc1ccc(Cl)c2cccnc12` [CBK266037], the “% of control remaining” value amounted to 202.482%.

`CN(C)CCNc1nc(-c2cccc3ncccc23)cnc1N` [CBK063693]: the “% of control remaining” value is given as 239.065%.

For `Cc1ccc(N2C(=O)c3ccccc3C2Nc2ccccc2)nc1` (stereo not shown) [CBK113238], the “% of control remaining” value stood at 102.707%.

For the molecule `Cc1ccc(Nc2nc(N)nc(CN3CCN(Cc4ccc5c(c4)OCO5)CC3)n2)cc1` [CBK268985], the “% of control remaining” value came out at 133.527%.

As to `CC[n+]1c(C(C)(C)C)csc1NCC1CC1` [CBK011154B], the “% of control remaining” value is 80.1402%.

Regarding `O=C(NCCN1CCOCC1)C1CCN(C(=O)c2cccc(F)c2)CC1` [CBK304627], the “% of control remaining” value is 137.631%.

For the molecule `CC(=O)Nc1cccc(NC(=O)c2cnc3sc(C)cn3c2=O)c1` [CBK287715], the “% of control remaining” value came to 96.7548%.

For `O=C(c1ccc2[nH]nnc2c1)N1CCc2ccccc2C1` [CBK200332], the “% of control remaining” value came to 82.6141%.

Turning to `CN(C(=O)N1CCC(C(=O)NC(c2ccccc2)c2ccco2)CC1)c1ccccc1` (stereo not shown) [CBK059877], the “% of control remaining” value is recorded as 88.2682%.

Take `COc1cccc(C(=O)N2CCC(Cc3ccc(-c4cccc(C)c4)cc3)(C(N)=O)CC2)c1` [CBK285779]: the “% of control remaining” value worked out at 29.3746%.

With `Cn1c(=O)[nH]c(=O)c2c1nc(N1CCN(Cc3ccccc3)CC1)n2CCCc1ccccc1` [CBK269529], the “% of control remaining” value is given as 121%.

For `CCOC(=O)CCNC(=O)C1(c2ccc(OC)cc2)CC1` [CBK161490], the “% of control remaining” value was 115.112%.

`O=C(Nc1ccc(S(=O)(=O)N2CCCCC2)cc1)c1nc(SCc2ccccc2)ncc1Cl` [CBK268901]: the “% of control remaining” value was 100.728%.

Regarding `Cc1noc(C2COCCN2C(=O)c2cc(Cl)cn2C)n1` (stereo not shown) [CBK305120], the “% of control remaining” value was found to be 106.578%.

In the case of `O=C1CCCC[C@@H]2[C@@H](N1)[C@H](c1ccccc1)CN2Cc1ccc2ccccc2n1` [CBK286281], the “% of control remaining” value turned out to be 105.528%.

On to `O=C(O)Cn1nnc(-c2ccc(OCc3ccccc3)cc2)n1` [CBK269755], for which the “% of control remaining” value is given as 132.369%.

In the case of `CCCCC12CN3CC(C)(CN(C1)C31C(=O)N(C)c3ccc(C)cc31)C2=O` (stereo not shown) [CBK267286], the “% of control remaining” value was 114.557%.

With `COc1ccc(CC(=O)Nc2ccc(Nc3ccccc3)cc2)cc1` [CBK263884], the “% of control remaining” value is reported as 47.9322%.

Take `Cc1ccnc(SCc2c(Cl)cccc2[N+](=O)[O-])n1` [CBK269632]: the “% of control remaining” value stood at 126.033%.

On to `O=C(CCC(=O)N1CCC2(CC1)CC(=O)c1ccccc1O2)NCC1CCCO1` (stereo not shown) [CBK156525], for which the “% of control remaining” value came to 118.029%.

With `Cc1oc(C(=O)O)cc1CSC(C)C(=O)O` (stereo not shown) [CBK263556], the “% of control remaining” value was 121.77%.

In the case of `O=C(CN1CCC(C(=O)c2ccc(F)cc2)CC1)c1ccsc1` [CBK149137], the “% of control remaining” value was 87.239%.

On to `CC(C)(C)OC(=O)NCc1ccc(-c2cc(Nc3cccc(Cl)c3)ncn2)cc1` [CBK037842], for which the “% of control remaining” value worked out at 128.688%.

Consider `O=CN1CCc2c([nH]c3ccccc23)C12CCCN(CCOc1ccccc1)C2` (stereo not shown) [CBK039412], for which the “% of control remaining” value was determined as 81.3225%.

As for `COc1cc(NC(=O)CS(=O)(=O)c2ccccc2)c(OC)cc1Cl` [CBK269471], the “% of control remaining” value is listed as 123.715%.

With `Cc1cc(C(=O)CSc2nncs2)c(C)n1C(C)c1ccccc1` (stereo not shown) [CBK297934], the “% of control remaining” value was found to be 112.984%.

On to `Cc1cccc(OCC2CCCN(C(=O)C3(Cn4cccn4)CC3)C2)c1` (stereo not shown) [CBK306578], for which the “% of control remaining” value is 108.481%.

Turning to `O=C(Nc1ccc(Cl)cc1)NC1(C(=O)NCc2ccncc2)CCCCC1` [CBK174259], the “% of control remaining” value came out at 121.373%.

For the molecule `O=S1(=O)CCCN1c1ccc2[nH]ncc2c1` [CBK010263], the “% of control remaining” value is recorded as 132.653%.

In the case of `CCOc1cccc(CNc2ccc(O)cc2)c1OCc1ccccc1Cl` [CBK074473], the “% of control remaining” value is 129.311%.

In the case of `Cc1nnc(Sc2nc(CN3CCOCC3)nc3scc(-c4cccs4)c23)n1C` [CBK297092], the “% of control remaining” value came to 92.0883%.

For the molecule `O=C(NC(c1ccc(F)cc1)c1cccs1)c1ccccn1` (stereo not shown) [CBK295636], the “% of control remaining” value amounted to 120.408%.

As to `NC1CCN(C(=O)c2cn(C3CC3)c3cc(Cl)c(F)cc3c2=O)CC1` [CBK168626], the “% of control remaining” value turned out to be 156.236%.

For `O=C(CN1CCOCC1)Nc1ccc(NC(=O)CN2CCOCC2)cc1` [CBK265045], the “% of control remaining” value turned out to be 110.028%.

As to `Nc1c(Cl)cc(NC(=O)CCCC(=O)O)cc1Cl` [CBK263957], the “% of control remaining” value is recorded as 100%.

For the molecule `O=C(c1cc2c([nH]1)CCCC2)N1CCC(CCN2CCOCC2)CC1` [CBK281869], the “% of control remaining” value stood at 146.929%.

On to `Cc1ccc(C(=O)C(OC(=O)c2ccc(-c3nnc(-c4ccccc4)o3)cc2)c2ccccc2)cc1` (stereo not shown) [CBK265177], for which the “% of control remaining” value is 105.04%.

Consider `c1coc(CCC2NCCn3cccc32)c1` (stereo not shown) [CBK023964F], for which the “% of control remaining” value is 139.349%.

Regarding `CCOC(=O)c1csc(C2CCCN2C(=O)c2cc(SC)ccc2Cl)n1` (stereo not shown) [CBK306491], the “% of control remaining” value is recorded as 123.683%.

Take `CN(C)CCOc1ncccc1OCCO` [CBK000655F]: the “% of control remaining” value is reported as 94.617%.

In the case of `CCS(=O)(=O)N1CC2CCCC(O)(c3cccc(F)c3)C2C1` (stereo not shown) [CBK283108], the “% of control remaining” value is on record as 115.199%.

Turning to `O=S(=O)(Nc1nc(-c2c(F)cccc2Cl)cs1)c1cc(Cl)c(Cl)s1` [CBK200025], the “% of control remaining” value worked out at 121.639%.

For the molecule `COc1ccc(C2=CC(c3ccc(Cl)cc3)N3N=CNC3=N2)cc1OC` (stereo not shown) [CBK287966], the “% of control remaining” value was determined as 137.973%.

Regarding `Cc1nn2cc(-c3n[nH]cc3[N+](=O)[O-])cnc2c1C(=O)O` [CBK268883], the “% of control remaining” value stood at 133.883%.

With `CC1CCN(Cc2ccc(-c3nnn(CC(=O)NCc4ccc(O)cc4)n3)cc2)CC1` [CBK144156C], the “% of control remaining” value is 121.761%.

Consider `O=C1CCCN1CC(=O)N1CCCC1c1nc2ccccc2[nH]1` (stereo not shown) [CBK282315], for which the “% of control remaining” value is reported as 117.908%.

Regarding `CC1=NNC(=O)C1C(c1ccc(Cl)cc1Cl)C1C(=O)NN=C1C` (stereo not shown) [CBK067756], the “% of control remaining” value is 110.847%.

As for `COC(=O)C(CC(C)C)Nc1nc(OC)cc(OC)n1` (stereo not shown) [CBK058765], the “% of control remaining” value was determined as 120.199%.
